# Reference: PMC10173541
# Amino acid sequences for entries named in this document (tags omitted).
# UniProt Q8BWG8: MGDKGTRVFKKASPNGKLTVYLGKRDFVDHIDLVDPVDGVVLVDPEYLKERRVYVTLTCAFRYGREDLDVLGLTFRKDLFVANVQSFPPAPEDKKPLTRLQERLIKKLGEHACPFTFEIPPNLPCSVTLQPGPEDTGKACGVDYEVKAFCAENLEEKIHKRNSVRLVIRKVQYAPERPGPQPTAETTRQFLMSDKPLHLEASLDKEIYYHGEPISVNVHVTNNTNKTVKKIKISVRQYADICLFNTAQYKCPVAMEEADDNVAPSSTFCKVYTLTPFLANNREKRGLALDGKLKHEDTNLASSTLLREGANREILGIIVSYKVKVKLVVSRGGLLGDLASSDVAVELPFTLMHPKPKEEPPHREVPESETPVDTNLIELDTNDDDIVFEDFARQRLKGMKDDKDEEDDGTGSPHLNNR
# UniProt Q8K1M6: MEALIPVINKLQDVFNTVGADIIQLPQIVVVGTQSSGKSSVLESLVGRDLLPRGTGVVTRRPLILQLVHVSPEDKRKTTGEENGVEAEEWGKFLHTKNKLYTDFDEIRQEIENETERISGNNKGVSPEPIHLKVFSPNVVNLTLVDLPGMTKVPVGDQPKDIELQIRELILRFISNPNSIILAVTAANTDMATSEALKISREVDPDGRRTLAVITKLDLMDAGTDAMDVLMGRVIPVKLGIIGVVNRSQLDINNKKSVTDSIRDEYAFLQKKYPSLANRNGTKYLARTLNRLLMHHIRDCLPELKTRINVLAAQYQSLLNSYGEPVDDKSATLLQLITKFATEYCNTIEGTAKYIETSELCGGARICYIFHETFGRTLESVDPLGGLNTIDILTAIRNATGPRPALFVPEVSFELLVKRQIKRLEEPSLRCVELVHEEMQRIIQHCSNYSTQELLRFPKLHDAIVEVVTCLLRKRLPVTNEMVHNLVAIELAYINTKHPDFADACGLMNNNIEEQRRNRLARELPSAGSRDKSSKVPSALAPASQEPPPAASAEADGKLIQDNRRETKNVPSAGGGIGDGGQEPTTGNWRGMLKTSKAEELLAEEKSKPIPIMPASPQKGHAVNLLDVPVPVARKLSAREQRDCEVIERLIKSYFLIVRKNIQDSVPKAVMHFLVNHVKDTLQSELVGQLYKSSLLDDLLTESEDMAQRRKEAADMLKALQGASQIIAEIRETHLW
# These are yes or no findings as the source states them, for the method shown. Binding seen in cells or lysates may run through a third protein. Some results given as binding are weak or reduced against the parent protein; the word gives no strength.
# Key:
# [1] = molecular target: β-arrestin1 (mouse (endogenous in primary astrocytes)) (UniProt Q8BWG8); test: co-IP; lysates of primary astrocytes (WT or β-arrestin1-/-; CON-MCM or LPS-MCM; with or without carvedilol pretreatment) incubated with anti-β-arrestin1, anti-Drp1 or anti-Fis1 antibody overnight, protein A/G-agarose beads 4 h at 4 °C, washed with cold PBS, western blot
# [2] = molecular target: β-arrestin1 (pcDNA3.1 construct) (UniProt Q8BWG8); test: co-IP; Flag-tagged Drp1 and β-arrestin1 pcDNA3.1 constructs co-transfected in HEK293T cells; lysates immunoprecipitated with anti-Drp1 or anti-β-arrestin1 antibody, then immunoblotting
# [3] = molecular target: dynamin-related protein 1 (Drp1) (mouse (endogenous in primary astrocytes)) (UniProt Q8K1M6); test: co-IP; lysates of primary astrocytes (WT or β-arrestin1-/-; CON-MCM or LPS-MCM; with or without carvedilol pretreatment) incubated with anti-β-arrestin1, anti-Drp1 or anti-Fis1 antibody overnight, protein A/G-agarose beads 4 h at 4 °C, washed with cold PBS, western blot
molecule,measurement,setting,value
dynamin-related protein 1 (Drp1) (from UniProt Q8K1M6 1-736),binding,[1],binds
Flag-tagged Drp1 (from UniProt Q8K1M6 1-736),binding,[2],binds
"mitochondrial fission 1 (Fis1) (protein, UniProt Q9CQ92 1-152) MEAVLNELVSVEDLKNFERKFQSEQAAGSVSKSTQFEYAWCLVRSKYNEDIRRGIVLLEELLPKGSKEEQRDYVFYLAVGNYRLKEYEKALKYVRGLLQTEPQNNQAKELERLIDKAMKKDGLVGMAIVGGMALGVAGLAGLIGLAVSKSKS",binding,[3],binds
